Measured values as given in PubChem BioAssay AID445 (National Center for Advancing Translational Sciences (NCATS), 2006).
Some of the results follow. Shown are side measurements of this screen, not its main read-out; they come without a call. The list favours compounds with an active or inconclusive main result. Potencies come from curve fits of mixed quality, noted in brackets.

Experiment: IkB Signaling
Conditions: ABC-DLBCL IkBa-CBG/CBR dual luciferase ratio (green luciferase fused to IkBa over red control in OCI-Ly3 lymphoma cells), 4 h; measured here: control luc red channel unless noted
Outline: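 Luminescence ratio of IκBα-fused green versus native red beetle luciferase in OCI-Ly3 cells, 4 h post-doxycycline with compound; red signal alone, scaled from basal (0%) to zero light (-100%), flagged nonspecific or cytotoxic effects.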

Structure (SMILES) | AC50
Clc1cccc(-c2nnc(-c3ccccc3)o2)c1 | 10 µM [falling, partial curve]
CCOC(=O)c1cc(-c2ccccc2)n(-c2cccc(C(=O)Nc3cccc(F)c3)c2)c1C | 39.8 µM [falling, single point]
C/C(N)=C(/C#N)C(=O)CSc1nnc(SCc2ccc(Cl)cc2)s1 | 12.6 µM [falling, partial curve]
CCn1c(=O)c2cc(C(=O)Nc3cc(F)ccc3F)sc2c2ccccc21 | 0.02 µM [falling, full curve]
Cn1c(=O)c(=O)n(C)c2cc(S(=O)(=O)Nc3ccc4c(c3)OCCO4)ccc21 | 5.01 µM [falling, full curve, poor fit]
Cc1ccc(CN2CCC(CNc3ncnc4onc(-c5ccc(F)cc5)c34)CC2)cc1 | 25.1 µM [falling, single point]
COc1ccc(-c2n[nH]c(=S)n2C2CCCCC2)cc1 | 10 µM [falling, partial curve]
CCCCn1c(=NC(=O)c2ccco2)c(C(=O)OCC)cc2c(=O)n3ccccc3nc21 | 12.6 µM [rising, partial curve] [measured here: IkB-luc green channel]
Cc1c(C(=O)c2no[n+]([O-])c2C(=O)c2cnn(C)c2C)cnn1C | 7.94 µM [falling, partial curve]
COc1cccc(-c2nc(SCc3cc(=O)c4ccc(C)c(C)c4[nH]3)n[nH]2)c1 | 31.6 µM [falling, partial curve, poor fit]
Clc1ccc(-c2nnc(-c3ccccc3)o2)c(Cl)c1 | 15.8 µM [falling, partial curve]
COc1ccc(NC(=O)c2csc3c2CCCCC3)cc1 | 3.16 µM [rising, partial curve]
Cc1ccc(Cc2c(C)nc3nc(SCC(=O)NC(C)c4ccccc4)nn3c2C)cc1 (configuration not stated) | 6.31 µM [falling, partial curve]
COc1ccc(S(=O)(=O)c2nnn(-c3cc(Cl)c(OC)cc3OC)c2C)cc1 | 25.1 µM [falling, single point]
CCOCCCn1c(SCC(=O)Nc2ccc(C(C)C)cc2)nc2c(sc3ccccc32)c1=O | 25.1 µM [rising, partial curve]
Cn1c(=O)c2c(-c3ccccc3)n3c4ccccc4nc(-c4ccccc4)c3c2n(C)c1=O | 15.8 µM [falling, partial curve]

Ordered by count of non-hydrogen atoms (smallest number first): some entries from above.
Structure (SMILES) | AC50
Cc1c(C(=O)c2no[n+]([O-])c2C(=O)c2cnn(C)c2C)cnn1C | 7.94 µM [falling, partial curve]
Cn1c(=O)c(=O)n(C)c2cc(S(=O)(=O)Nc3ccc4c(c3)OCCO4)ccc21 | 5.01 µM [falling, full curve, poor fit]
CCOCCCn1c(SCC(=O)Nc2ccc(C(C)C)cc2)nc2c(sc3ccccc32)c1=O | 25.1 µM [rising, partial curve]

The results go on.

Structure (SMILES) | AC50
COc1ccc(C(=O)NCC(c2cccnc2)N2CCc3ccccc3C2)cc1OC (configuration not stated) | 31.6 µM [falling, single point]
Cc1ccc(Cl)cc1NC(=O)C(C)n1nnc2sc3c(c2c1=O)CCCC3 (configuration not stated) | 12.6 µM [falling, partial curve]
Cc1cccc(N2CCN(S(=O)(=O)c3ccc4c(c3)CCCN4C(=O)C3CCC3)CC2C)c1 (configuration not stated) | 20 µM [falling, partial curve]
COc1ccc(Cn2c(=O)[nH]c3cc(C(=O)N4CCN(c5cccc(Cl)c5)CC4)ccc3c2=O)cc1 | 0.316 µM [falling, full curve]
Cn1c(=O)n(-c2ccc(Br)cc2F)c(=O)c2sc3ccccc3c21 | 25.1 µM [rising, partial curve]
CCOC(=O)c1ccc(CN(Cc2ccc(F)cc2)S(=O)(=O)c2cc(C(=O)Nc3cccc(C(F)(F)F)c3)ccc2F)cc1 | 7.94 µM [falling, full curve]
COc1cc2c(=O)c(S(=O)(=O)c3ccc(F)cc3)cn(Cc3ccc(Cl)cc3)c2cc1OC | 20 µM [falling, partial curve]
CCCN1C(C(=O)c2ccccc2)=C(OC(=O)COc2ccccc2)c2ccccc2S1(=O)=O | 10 µM [falling, partial curve]
CC(=O)c1ccc(NC(=O)c2noc3c2CCc2ccccc2-3)cc1 | 0.631 µM [rising, full curve]
CCOC(=O)c1[nH]c2ccc(F)cc2c1NC(=O)c1cc(OC)c(OC)c(OC)c1 | 15.8 µM [falling, partial curve]
O=C(Cn1cnc2c(oc3ccccc32)c1=O)Nc1ccccc1C(F)(F)F | 0.398 µM [falling, full curve]
Cc1ccc(-c2nnc(Nc3cccc(Cl)c3)c3ccccc23)cc1S(=O)(=O)N1CCOCC1 | 0.1 µM [falling, full curve]
Cc1cc(C)c(NC(=O)CSc2nc3ccccc3nc2N2CCCCC2)c(C)c1 | 3.98 µM [falling, full curve, poor fit]
CCC(C(=O)Nc1cccc(Cl)c1C)n1nc(-c2ccc(C)cc2)ccc1=O (configuration not stated) | 15.8 µM [falling, partial curve]
CCCc1nc2sc3c(N4CCC(C)CC4)ncnc3c2c2c1CCCC2 | 1.26 µM [rising, full curve, poor fit]
O=C(NCc1cccc(Cl)c1)c1cc2ccc3cccnc3c2[nH]1 | 0.631 µM [rising, full curve]
